# Results taken from the supplement of paper PMC7666118.
# By UniProt entry, the sequences of proteins in these tests, tags left out. Where a name states a change or a piece, a line headed by the entry shows the natural chain unless it says otherwise.
# UniProt O43482, whole entry: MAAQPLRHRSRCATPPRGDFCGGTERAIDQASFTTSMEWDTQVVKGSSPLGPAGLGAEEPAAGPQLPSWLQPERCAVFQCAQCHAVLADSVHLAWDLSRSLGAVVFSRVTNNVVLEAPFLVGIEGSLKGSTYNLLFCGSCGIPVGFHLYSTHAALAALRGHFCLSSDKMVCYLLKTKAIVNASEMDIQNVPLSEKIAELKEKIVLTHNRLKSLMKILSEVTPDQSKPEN
# UniProt O00221: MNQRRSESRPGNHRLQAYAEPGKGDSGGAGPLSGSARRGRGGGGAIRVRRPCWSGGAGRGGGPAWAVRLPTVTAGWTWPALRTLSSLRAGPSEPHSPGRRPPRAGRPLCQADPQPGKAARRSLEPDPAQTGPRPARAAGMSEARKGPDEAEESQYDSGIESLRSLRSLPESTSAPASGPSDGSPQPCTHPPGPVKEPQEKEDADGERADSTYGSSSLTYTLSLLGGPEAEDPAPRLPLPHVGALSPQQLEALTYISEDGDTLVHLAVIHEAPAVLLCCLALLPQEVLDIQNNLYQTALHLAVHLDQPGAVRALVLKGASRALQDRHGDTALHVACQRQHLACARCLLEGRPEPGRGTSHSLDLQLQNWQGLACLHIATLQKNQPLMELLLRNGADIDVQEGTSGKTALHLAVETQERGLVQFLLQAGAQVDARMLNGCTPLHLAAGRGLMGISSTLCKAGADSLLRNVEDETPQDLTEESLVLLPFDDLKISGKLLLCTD
# UniProt Q9BZ23: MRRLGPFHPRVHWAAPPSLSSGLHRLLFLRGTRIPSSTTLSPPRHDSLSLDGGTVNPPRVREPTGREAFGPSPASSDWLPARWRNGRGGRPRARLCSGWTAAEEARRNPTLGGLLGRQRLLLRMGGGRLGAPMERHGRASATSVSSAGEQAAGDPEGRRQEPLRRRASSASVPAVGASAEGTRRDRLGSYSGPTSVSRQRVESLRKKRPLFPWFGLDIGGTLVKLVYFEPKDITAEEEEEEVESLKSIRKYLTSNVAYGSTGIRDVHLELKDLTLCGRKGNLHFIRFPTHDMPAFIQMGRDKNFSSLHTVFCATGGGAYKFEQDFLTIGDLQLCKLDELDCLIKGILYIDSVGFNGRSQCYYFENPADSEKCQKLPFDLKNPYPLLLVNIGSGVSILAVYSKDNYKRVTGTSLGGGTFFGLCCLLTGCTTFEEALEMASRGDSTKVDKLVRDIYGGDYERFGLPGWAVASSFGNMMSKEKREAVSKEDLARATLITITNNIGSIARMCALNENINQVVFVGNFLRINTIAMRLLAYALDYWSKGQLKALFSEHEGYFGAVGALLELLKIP
# UniProt P19838: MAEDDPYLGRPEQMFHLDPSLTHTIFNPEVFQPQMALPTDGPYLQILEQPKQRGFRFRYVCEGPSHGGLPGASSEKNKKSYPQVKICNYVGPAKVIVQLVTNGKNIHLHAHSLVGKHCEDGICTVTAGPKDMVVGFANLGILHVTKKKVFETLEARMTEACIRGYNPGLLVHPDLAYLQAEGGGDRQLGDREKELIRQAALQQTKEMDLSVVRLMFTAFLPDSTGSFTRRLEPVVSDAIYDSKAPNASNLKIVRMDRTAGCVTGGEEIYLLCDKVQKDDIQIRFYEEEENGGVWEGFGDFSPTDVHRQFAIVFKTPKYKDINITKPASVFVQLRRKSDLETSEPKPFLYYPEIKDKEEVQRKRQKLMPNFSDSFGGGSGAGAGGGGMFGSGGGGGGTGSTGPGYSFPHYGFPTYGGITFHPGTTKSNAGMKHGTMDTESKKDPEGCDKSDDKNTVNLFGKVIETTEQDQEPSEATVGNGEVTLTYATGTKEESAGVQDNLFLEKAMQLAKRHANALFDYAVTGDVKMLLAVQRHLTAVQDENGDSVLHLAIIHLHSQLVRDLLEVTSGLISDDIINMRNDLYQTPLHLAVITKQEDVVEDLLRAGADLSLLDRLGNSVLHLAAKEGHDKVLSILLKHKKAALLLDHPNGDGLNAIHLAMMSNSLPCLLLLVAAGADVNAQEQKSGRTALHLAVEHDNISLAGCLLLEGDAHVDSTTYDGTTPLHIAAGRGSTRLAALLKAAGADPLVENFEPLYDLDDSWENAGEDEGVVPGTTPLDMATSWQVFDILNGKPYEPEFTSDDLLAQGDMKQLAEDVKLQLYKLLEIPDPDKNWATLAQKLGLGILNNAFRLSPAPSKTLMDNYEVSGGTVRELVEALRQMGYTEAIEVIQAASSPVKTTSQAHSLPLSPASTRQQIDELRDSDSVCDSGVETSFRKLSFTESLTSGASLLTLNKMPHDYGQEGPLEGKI
# UniProt Q9UMY1: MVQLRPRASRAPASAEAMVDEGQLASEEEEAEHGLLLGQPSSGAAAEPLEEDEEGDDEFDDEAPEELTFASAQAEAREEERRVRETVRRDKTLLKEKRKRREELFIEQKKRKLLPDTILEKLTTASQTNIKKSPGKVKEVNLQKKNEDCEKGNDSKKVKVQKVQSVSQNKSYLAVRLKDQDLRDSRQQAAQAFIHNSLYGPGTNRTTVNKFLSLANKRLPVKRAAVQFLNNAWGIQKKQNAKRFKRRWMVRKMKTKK
# UniProt O96013: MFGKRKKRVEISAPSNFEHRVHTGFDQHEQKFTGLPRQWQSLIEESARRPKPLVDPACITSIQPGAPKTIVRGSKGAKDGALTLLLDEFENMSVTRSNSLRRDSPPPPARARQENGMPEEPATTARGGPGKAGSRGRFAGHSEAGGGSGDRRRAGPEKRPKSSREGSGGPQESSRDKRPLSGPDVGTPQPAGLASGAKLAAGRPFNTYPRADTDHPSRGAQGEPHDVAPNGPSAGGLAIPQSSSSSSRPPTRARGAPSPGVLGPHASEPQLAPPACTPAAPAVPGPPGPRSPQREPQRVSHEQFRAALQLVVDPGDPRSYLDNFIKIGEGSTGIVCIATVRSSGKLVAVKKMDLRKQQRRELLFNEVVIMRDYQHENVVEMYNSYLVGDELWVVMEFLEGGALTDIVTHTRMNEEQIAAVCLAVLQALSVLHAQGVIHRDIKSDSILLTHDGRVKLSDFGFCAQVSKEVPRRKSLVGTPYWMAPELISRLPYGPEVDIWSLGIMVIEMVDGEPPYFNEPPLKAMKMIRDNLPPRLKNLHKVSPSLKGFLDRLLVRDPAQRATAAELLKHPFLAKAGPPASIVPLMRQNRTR
# UniProt Q9BXJ9: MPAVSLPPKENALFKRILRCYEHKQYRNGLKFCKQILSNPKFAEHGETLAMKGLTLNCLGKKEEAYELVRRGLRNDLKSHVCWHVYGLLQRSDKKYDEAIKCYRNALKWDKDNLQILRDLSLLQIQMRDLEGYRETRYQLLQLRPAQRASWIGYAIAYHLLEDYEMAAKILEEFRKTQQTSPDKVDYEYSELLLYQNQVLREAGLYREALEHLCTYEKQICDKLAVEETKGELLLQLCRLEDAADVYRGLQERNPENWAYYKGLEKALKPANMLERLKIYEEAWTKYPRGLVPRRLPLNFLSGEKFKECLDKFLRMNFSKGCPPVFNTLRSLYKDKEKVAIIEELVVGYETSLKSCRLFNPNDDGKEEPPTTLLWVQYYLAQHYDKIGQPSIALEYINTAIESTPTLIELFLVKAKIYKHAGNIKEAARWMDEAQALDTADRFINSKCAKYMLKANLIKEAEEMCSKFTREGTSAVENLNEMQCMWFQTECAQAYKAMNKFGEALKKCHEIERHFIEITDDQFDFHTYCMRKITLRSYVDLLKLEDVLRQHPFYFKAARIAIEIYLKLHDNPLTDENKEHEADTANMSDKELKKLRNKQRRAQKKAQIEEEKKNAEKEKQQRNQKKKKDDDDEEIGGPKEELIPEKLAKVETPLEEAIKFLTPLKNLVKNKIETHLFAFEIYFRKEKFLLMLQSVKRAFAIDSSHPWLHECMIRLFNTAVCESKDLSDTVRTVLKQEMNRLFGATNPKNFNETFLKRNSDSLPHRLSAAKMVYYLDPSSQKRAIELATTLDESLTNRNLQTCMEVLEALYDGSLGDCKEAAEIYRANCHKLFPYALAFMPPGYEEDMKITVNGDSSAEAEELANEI
# UniProt Q9BPX3, whole entry, looked up: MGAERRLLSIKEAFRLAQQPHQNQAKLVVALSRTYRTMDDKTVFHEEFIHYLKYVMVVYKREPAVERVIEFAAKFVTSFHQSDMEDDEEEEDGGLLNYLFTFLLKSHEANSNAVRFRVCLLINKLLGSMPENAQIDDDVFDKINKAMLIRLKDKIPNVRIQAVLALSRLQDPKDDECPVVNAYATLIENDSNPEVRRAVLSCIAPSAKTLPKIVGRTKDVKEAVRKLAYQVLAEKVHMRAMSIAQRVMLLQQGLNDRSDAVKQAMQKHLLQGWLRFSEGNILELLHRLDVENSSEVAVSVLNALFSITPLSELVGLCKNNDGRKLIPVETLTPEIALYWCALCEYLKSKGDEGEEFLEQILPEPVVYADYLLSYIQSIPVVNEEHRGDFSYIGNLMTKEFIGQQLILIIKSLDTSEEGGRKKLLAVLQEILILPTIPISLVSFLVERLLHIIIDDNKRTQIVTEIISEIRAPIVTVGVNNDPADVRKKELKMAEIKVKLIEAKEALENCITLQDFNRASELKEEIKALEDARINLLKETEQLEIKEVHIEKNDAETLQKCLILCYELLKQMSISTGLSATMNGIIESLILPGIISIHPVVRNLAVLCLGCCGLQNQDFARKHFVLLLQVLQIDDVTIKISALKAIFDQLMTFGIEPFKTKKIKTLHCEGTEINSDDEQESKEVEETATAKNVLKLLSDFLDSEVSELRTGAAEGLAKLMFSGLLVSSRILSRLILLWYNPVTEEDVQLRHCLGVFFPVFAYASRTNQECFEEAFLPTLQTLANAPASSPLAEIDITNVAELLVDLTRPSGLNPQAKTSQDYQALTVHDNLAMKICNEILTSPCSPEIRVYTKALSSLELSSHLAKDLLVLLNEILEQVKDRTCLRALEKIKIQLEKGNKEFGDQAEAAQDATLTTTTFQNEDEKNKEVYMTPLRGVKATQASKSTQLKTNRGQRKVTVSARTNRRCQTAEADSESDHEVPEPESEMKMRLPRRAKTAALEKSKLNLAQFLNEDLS
# UniProt O43776: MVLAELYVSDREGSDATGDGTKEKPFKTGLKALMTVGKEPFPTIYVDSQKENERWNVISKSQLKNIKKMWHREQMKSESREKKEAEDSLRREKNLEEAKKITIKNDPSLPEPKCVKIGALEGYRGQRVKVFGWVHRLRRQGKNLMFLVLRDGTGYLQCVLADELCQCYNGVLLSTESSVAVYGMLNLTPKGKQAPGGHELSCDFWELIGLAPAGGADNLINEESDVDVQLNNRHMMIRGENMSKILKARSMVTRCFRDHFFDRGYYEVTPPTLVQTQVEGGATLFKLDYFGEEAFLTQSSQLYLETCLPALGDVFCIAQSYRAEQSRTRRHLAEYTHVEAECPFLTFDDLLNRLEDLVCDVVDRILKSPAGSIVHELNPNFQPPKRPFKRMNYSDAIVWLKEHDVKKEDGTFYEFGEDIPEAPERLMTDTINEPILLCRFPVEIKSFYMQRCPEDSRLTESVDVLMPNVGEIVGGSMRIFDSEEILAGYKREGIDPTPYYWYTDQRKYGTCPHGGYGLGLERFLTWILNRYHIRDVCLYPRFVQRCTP
# UniProt P61970, whole entry: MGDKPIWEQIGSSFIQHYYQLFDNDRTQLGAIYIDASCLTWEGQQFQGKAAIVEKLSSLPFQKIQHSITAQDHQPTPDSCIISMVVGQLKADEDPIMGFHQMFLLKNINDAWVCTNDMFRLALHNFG
# UniProt P49902: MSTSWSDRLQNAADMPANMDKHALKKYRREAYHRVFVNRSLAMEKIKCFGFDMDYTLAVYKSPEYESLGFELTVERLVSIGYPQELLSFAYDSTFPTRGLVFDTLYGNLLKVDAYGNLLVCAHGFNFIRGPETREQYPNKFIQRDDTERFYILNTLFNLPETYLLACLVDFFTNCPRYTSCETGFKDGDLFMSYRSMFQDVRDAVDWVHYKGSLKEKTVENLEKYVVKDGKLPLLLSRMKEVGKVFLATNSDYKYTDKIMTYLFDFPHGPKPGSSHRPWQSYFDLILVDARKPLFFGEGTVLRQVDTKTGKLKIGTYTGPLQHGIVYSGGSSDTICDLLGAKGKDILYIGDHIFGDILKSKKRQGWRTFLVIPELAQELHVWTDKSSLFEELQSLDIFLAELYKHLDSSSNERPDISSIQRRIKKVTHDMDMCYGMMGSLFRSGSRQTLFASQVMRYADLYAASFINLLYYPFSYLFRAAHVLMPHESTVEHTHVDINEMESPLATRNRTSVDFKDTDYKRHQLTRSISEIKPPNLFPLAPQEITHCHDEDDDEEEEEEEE
# UniProt Q86U42: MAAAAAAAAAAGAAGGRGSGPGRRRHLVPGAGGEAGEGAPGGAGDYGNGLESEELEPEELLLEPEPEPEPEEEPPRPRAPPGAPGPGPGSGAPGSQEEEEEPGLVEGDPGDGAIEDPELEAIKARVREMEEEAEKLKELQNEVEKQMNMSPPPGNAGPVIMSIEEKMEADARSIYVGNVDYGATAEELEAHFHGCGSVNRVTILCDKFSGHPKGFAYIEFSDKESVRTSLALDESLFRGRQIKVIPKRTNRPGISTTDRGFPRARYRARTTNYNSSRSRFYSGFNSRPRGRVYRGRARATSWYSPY
# The list shows a part of the results.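 Rule for the calls: active = dose-dependent thermal stabilisation significant by F-test of dose-response against flat model at 10% FDR; inactive = not significant.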
# Compound: Nc1nc2c(ncn2[C@@H]2O[C@H](COP(=O)(O)OP(=O)(O)OP(=O)(O)O)[C@@H](O)[C@H]2O)c(=O)[nH]1
# Assay: dose-dependent thermal stabilisation call (2D-TPP, DLPTP, 10% FDR) (binary (1 = stabilised)); higher = stabilised by the compound
# Settings: system: Jurkat gel-filtered lysate; concentration range 1-500 µM
# Experimental: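 2D thermal proteome profiling in gel-filtered Jurkat E6.1 lysate (2 mg/ml) treated with NaGTP (0, 1, 10, 100, 500 uM) for 10 min at room temperature, then heated 3 min at one of 12 temperatures (42-63.9 C). Soluble protein was quantified by TMT10 MS. The value is the DLPTP call of the paper: dose-dependent thermal stabilisation over all temperatures at 10% FDR (F-test of a dose-response against a flat model); one experiment, one call per tested protein.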
row,Target,dose-dependent thermal stabilisation call
1,OIP5 (UniProt O43482),inactive: 0
2,NSMCE1 (UniProt Q8WV22),inactive: 0
3,NADSYN1 (UniProt Q6IA69),inactive: 0
4,NUDC (UniProt Q9Y266),inactive: 0
5,NAA10 (UniProt P41227),inactive: 0
6,OVCA2 (UniProt Q8WZ82),active: 1
7,NAPA (UniProt P54920),inactive: 0
8,NOP2 (UniProt P46087),inactive: 0
9,PAICS (UniProt P22234),inactive: 0
10,NIPSNAP3A (UniProt Q9UFN0),inactive: 0
11,OTUD4 (UniProt Q01804),inactive: 0
12,NISCH (UniProt Q9Y2I1),active: 1
13,NT5DC1 (UniProt Q5TFE4),inactive: 0
14,NFKBIE (UniProt O00221),inactive: 0
15,PANK2 (UniProt Q9BZ23),active: 1
16,ERCC6 (UniProt P0DP91),inactive: 0
17,NFKB1 (UniProt P19838),active: 1
18,NAXD (UniProt Q8IW45),inactive: 0
19,NECAP1 (UniProt Q8NC96),inactive: 0
20,NOL7 (UniProt Q9UMY1),inactive: 0

row,Target,dose-dependent thermal stabilisation call
1,PAK4 (UniProt O96013),active: 1
2,NR3C1 (UniProt P04150),inactive: 0
3,NAA15 (UniProt Q9BXJ9),inactive: 0
4,NCOR1 (UniProt O75376),inactive: 0
5,NUMB (UniProt P49757),active: 1
6,NUDT18 (UniProt Q6ZVK8),inactive: 0
7,NRBP1 (UniProt Q9UHY1),inactive: 0
8,NCAPG (UniProt Q9BPX3),inactive: 0
9,NUP37 (UniProt Q8NFH4),inactive: 0
10,NCL (UniProt P19338),inactive: 0
11,NCS1 (UniProt P62166),inactive: 0
12,NOP58 (UniProt Q9Y2X3),inactive: 0
13,NEDD4 (UniProt P46934),inactive: 0
14,NARS (UniProt O43776),active: 1
15,NUTF2 (UniProt P61970),inactive: 0
16,NUDT9 (UniProt Q9BW91),inactive: 0
17,NT5C2 (UniProt P49902),inactive: 0
18,PABPN1 (UniProt Q86U42),inactive: 0
19,NUP54 (UniProt Q7Z3B4),inactive: 0
20,NAA30 (UniProt Q147X3),active: 1

# Part of the list above, with tabs:
row	Target	dose-dependent thermal stabilisation call
11	NCS1 (UniProt P62166)	inactive: 0
13	NEDD4 (UniProt P46934)	inactive: 0
